Source: the supplement of paper PMC6078165
The reference is the same well before dosing, and untreated signal decays as well.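 The tumor cells are basal-like or mesenchymal-like triple-negative breast cancer lines cultured without fibroblasts. Reduced red signal indicates lost mitochondrial integrity, serving as a proxy for apoptotic death.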

How the values were obtained:
Assay in all cases: relative JC-1 red fluorescence (viability) vs pre-drug, monoculture (fraction); higher = more viable cancer cells
Settings in all cases: coculture fibroblast: none (monoculture)
[1] = test system: BT20
Description: (§1)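 JC-1 labelled TNBC cells grown in monoculture (density kept equal with unlabelled cancer cells) in 384-well plates in FluoroBrite medium, treated with one of 42 anticancer drugs at 0.1, 1, 10 or 100 uM. JC-1 red fluorescence (mitochondrial integrity, surrogate of apoptotic death) was read by plate reader every 8 h for 72 h. Values are normalised to each well's pre-drug value, with background from alamethicin. The stock of one drug was tenfold lower, so its dose labels may be too high. Monoculture values are repeated alongside each fibroblast plate and are averaged here.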

[2] = test system: Hs578T
Description: as §1

[3] = test system: MDAMB231
Description: as §1

[4] = test system: MDAMB468
Description: as §1

CC(=O)O[C@@]12CO[C@@H]1C[C@H](O)[C@@]1(C)C(=O)[C@H](O)C3=C(C)[C@@H](OC(=O)[C@H](O)[C@@H](NC(=O)OC(C)(C)C)c4ccccc4)C[C@@](O)([C@@H](OC(=O)c4ccccc4)[C@H]21)C3(C)C [Docetaxel]
relative JC-1 red fluorescence
Settings | 8 h | 16 h | 24 h | 32 h | 40 h | 48 h | 56 h | 64 h | 72 h
[1], 0.1 µM | 0.971 | 0.867 | 0.765 | 0.657 | 0.585 | 0.53 | 0.487 | 0.454 | 0.432
[1], 1 µM | 0.93432 | 0.8747 | 0.788 | 0.709 | 0.654 | 0.613 | 0.568 | 0.561 | 0.542
[1], 10 µM | 0.955 | 0.841 | 0.806 | 0.735 | 0.682 | 0.6481 | 0.613 | 0.592 | 0.578
[1], 100 µM | 0.9236 | 0.8649 | 0.801 | 0.719 | 0.682 | 0.658 | 0.629 | 0.617 | 0.607
[2], 0.1 µM | 0.8826 | 0.719 | 0.621 | 0.551 | 0.501 | 0.49 | 0.462 | 0.467 | 0.461
[2], 1 µM | 0.846 | 0.744 | 0.6858 | 0.607 | 0.547 | 0.52 | 0.497 | 0.507 | 0.509
[2], 10 µM | 0.9087 | 0.763 | 0.7373 | 0.665 | 0.6108 | 0.5888 | 0.55 | 0.537 | 0.53
[2], 100 µM | 0.805 | 0.699 | 0.6 | 0.543 | 0.521 | 0.492 | 0.468 | 0.461 | 0.446
[3], 0.1 µM | 0.815 | 0.7712 | 0.716 | 0.665 | 0.633 | 0.632 | 0.625 | 0.658 | 0.67
[3], 1 µM | 0.735 | 0.725 | 0.628 | 0.595 | 0.548 | 0.517 | 0.5 | 0.533 | 0.529
[3], 10 µM | 0.809 | 0.735 | 0.82 | 0.718 | 0.697 | 0.716 | 0.708 | 0.759 | 0.77
[3], 100 µM | 0.588 | 0.557 | 0.506 | 0.492 | 0.494 | 0.51 | 0.513 | 0.555 | 0.557
[4], 0.1 µM | 0.912 | 0.8009 | 0.721 | 0.651 | 0.589 | 0.57 | 0.531 | 0.511 | 0.505
[4], 1 µM | 0.893 | 0.829 | 0.783 | 0.69 | 0.65 | 0.607 | 0.572 | 0.532 | 0.517
[4], 10 µM | 0.92 | 0.844 | 0.836 | 0.763 | 0.722 | 0.705 | 0.658 | 0.641 | 0.626
[4], 100 µM | 0.8645 | 0.746 | 0.6854 | 0.583 | 0.558 | 0.547 | 0.523 | 0.504 | 0.503

CC(=O)c1c(C)c2cnc(Nc3ccc(N4CCNCC4)cn3)nc2n(C2CCCC2)c1=O [Palbociclib]
relative JC-1 red fluorescence
Settings | 8 h | 16 h | 24 h | 32 h | 40 h | 48 h | 56 h | 64 h | 72 h
[1], 0.1 µM | 0.9443 | 0.86256 | 0.7924 | 0.736 | 0.7052 | 0.6849 | 0.6558 | 0.637 | 0.62114
[1], 1 µM | 0.9394 | 0.914 | 0.868 | 0.816 | 0.7684 | 0.768 | 0.723 | 0.704 | 0.692
[1], 10 µM | 0.877 | 0.801 | 0.879 | 0.904 | 0.768 | 0.877 | 0.7466 | 0.808 | 0.864
[1], 100 µM | 0.886 | 0.579 | 0.36 | 0.294 | 0.263 | 0.24 | 0.216 | 0.2 | 0.184
[2], 0.1 µM | 0.8333 | 0.7128 | 0.62 | 0.554 | 0.505 | 0.474 | 0.449 | 0.432 | 0.419
[2], 1 µM | 0.906 | 0.831 | 0.7779 | 0.72068 | 0.676 | 0.66 | 0.64 | 0.638 | 0.623
[2], 10 µM | 0.97 | 0.935 | 0.864 | 0.848 | 0.837 | 0.753 | 0.72 | 0.704 | 0.661
[2], 100 µM | 0.568 | 0.34932 | 0.3563 | 0.272 | 0.238 | 0.221 | 0.202 | 0.192 | 0.173
[3], 0.1 µM | 0.7297 | 0.7056 | 0.579 | 0.605 | 0.55789 | 0.5442 | 0.505 | 0.512 | 0.503
[3], 1 µM | 0.798 | 0.792 | 0.704 | 0.675 | 0.62 | 0.611 | 0.579 | 0.587 | 0.578
[3], 10 µM | 0.9117 | 0.872 | 0.89323 | 0.942 | 0.9066 | 0.823 | 0.925 | 0.928 | 0.92
[3], 100 µM | 0.646 | 0.55 | 0.485 | 0.408 | 0.37 | 0.326 | 0.264 | 0.257 | 0.235
[4], 0.1 µM | 0.8906 | 0.8497 | 0.79 | 0.696 | 0.637 | 0.607 | 0.581 | 0.557 | 0.539
[4], 1 µM | 0.9065 | 0.853 | 0.814 | 0.748 | 0.7 | 0.675 | 0.646 | 0.624 | 0.613
[4], 10 µM | 0.9671 | 0.9776 | 0.911 | 0.81 | 0.895 | 0.825 | 0.702 | 0.619 | 0.552
[4], 100 µM | 0.617 | 0.349 | 0.278 | 0.23 | 0.2 | 0.187 | 0.164 | 0.15 | 0.137
